{"source": "PubChem BioAssay AID445", "about": "(National Center for Advancing Translational Sciences (NCATS), 2006)", "note": "The other results are listed elsewhere or left out. The main result of the screen is listed elsewhere. These columns were measured beside it and carry no call. Compounds called inactive in the main read-out are mostly missing here. Words in brackets tell the shape of the fitted curve; partial curves, single points and poor fits give uncertain potencies.", "data": [{"test": "IkB Signaling", "details": "ABC-DLBCL IkBa-CBG/CBR dual luciferase ratio (green luciferase fused to IkBa over red control in OCI-Ly3 lymphoma cells), 4 h; measured here: control luc red channel unless noted", "text": "NIH Molecular Libraries Screening Centers Network [MLSCN]\nNIH Chemical Genomics Center [NCGC]\nNuclear factor kappa-B (NF-kappa-B) plays an important role in normal B cell development and survival. Diffuse large B cell lymphoma (DLBCL) is the most commonly observed type of non-Hodgkin's lymphoma. Gene expression analysis has identified an activated B cell-like subtype of DLBCL (ABC-DLBCL) which expresses known NF-kappa-B target genes. […] However, targets upstream of IKK have been largely unexplored and so nodes upstream of IKK in the NF-kappa-B pathway remain untested due to the lack of chemical probes.\nA cell-sensor assay for I-kappa-B-alpha stabilization was developed with NIH investigator Dr. R. Eric Davis in Dr. Louis M. Staudt's laboratory. The assay uses green (CBG68) and red (CBR) emitting beetle luciferases [Chroma-Glo(TM) developed by Promega Corp.] where the green luciferase is fused to I-kappa-B-alpha and the red luciferase is present in its native state. Both luciferase genes are stably present in the OCI-Ly3 human ABC DLBCL cell line, but their expression is under the control of tetracycline-inducible promoters. Following the addition of doxycycline to induce expression of the luciferases, the green luminescence in control cultures rises only slowly because the CBG fusion partner I-kappa-B-alpha is targeted by IKK activity for rapid degradation. In contrast, green luminescence rises rapidly in the presence of proteasome inhibitors or IKK inhibitors. The rise in red luminescence of CBR is not affected by proteasome or IKK inhibitors, and serves as normalization for cell number and nonspecific effects. Compounds were screened as a concentration-titration series that ranged from 57 uM to 0.7 nM.\nNCGC Assay Protocol Summary:\nCells were seeded in 1536-well plates at 5000 cells/3ul in IMDM medium containing 0.5% FBS, w/o phenol red, L-glutamine, 25 mM HEPES, 3 mg/ml sodium bicarbonate. After centrifugation for 1 min. at 1000 rpm, 23 nl of compounds or DMSO were delivered to each well using a pin tool. Then 1ul 80ng/ml doxycycline was dispensed into white solid 1536-well plates and the plates were incubated at 37C/5% C02 in a cell incubator for 4 hrs. Then 4 ul Chroma-Glo luminescent substrate mix (Promega) was added to each well. The plate was incubated at R.T. for 10-15 min. The plates were measured on a ViewLux plate reader for green luminescence (540/20 nm filter) and red luminescence (618/8 nm filter). The green and red luminescent signals were corrected for red and green luminescence filter overlap using previously determined filter calibration constants (determined using the procedure outlined in the Promega Technical Manual). The %Activity was determined from the ratio of corrected green/red luminescent values. Green luminescent and ratio %Activity was determined by normalizing to the difference in signal between basal cells (0% Activity) and cells incubated with 10 uM of the proteasome inhibitor MG-132 (100% Activity). Red luminescent %Activity was normalized to the difference between red luminesence in basal cells (0%Activity) and zero luminescence (-100% Activity).\nConcentration-response curves were fitted to the signals arising from the green luminescence (I-kappa-B-alpha-luciferase fusion; IkB-luc) and the red luminescence (unfused luciferase; luc) as well as the calculated ratio. The concentration-effect curves were then classified based on curve quality (r2), response magnitude and degree of measured activity. Compounds were then categorized based on their concentration-response curves for all three datasets (Ikb-luc, luc and ratio).\nKeywords: IKK, I-kappa-B, IkB, IkBa, cytotoxicity, luminescence, MLSMR, MLSCN, NIH Roadmap, qHTS, NCGC", "values": [{"molecule": "N=C1C(c2ccccc2)=C(O)C2CCc3ccccc3N12", "note": "(configuration not stated)", "AC50": "25.1 µM [falling, partial curve]"}, {"molecule": "CCOc1ccc(C2C(=O)N(C3CCCCC3)CC(=O)N2CCC2=CCCCC2)cc1OC", "note": "(configuration not stated)", "AC50": "3.16 µM [falling, partial curve]"}, {"molecule": "CCOc1ccccc1NC(=O)CSC1=Nc2ccccc2C2=NC(CC(=O)NCc3ccc4c(c3)OCO4)C(=O)N12", "note": "(configuration not stated)", "AC50": "31.6 µM [falling, partial curve]"}, {"molecule": "Cc1nn(CC(=O)NCCc2ccccc2)c(=O)c2c1sc1ccccc12", "AC50": "7.94 µM [falling, partial curve]"}, {"molecule": "O=c1cc(-c2ccccc2)n2c(SCc3ccc(Br)cc3)nnc2[nH]1", "AC50": "0.794 µM [rising, full curve]"}, {"molecule": "c1ccc(-c2onc3cc4c(cc23)OCCO4)cc1", "AC50": "20 µM [falling, single point]"}, {"molecule": "COc1ccc(-n2ccnc(NCCc3ccc(Cl)cc3)c2=O)cc1OC", "AC50": "12.6 µM [falling, partial curve]"}, {"molecule": "CCN(Cc1ccccc1)Cc1c(O)ccc2oc(C)c(C(=O)Nc3ccccc3C)c12", "AC50": "12.6 µM [falling, partial curve]"}, {"molecule": "CCn1cc(C(=O)N2CCN(c3ccc(OC)cc3)CC2)c2cc(OC)c(OC)cc2c1=O", "AC50": "0.0398 µM [falling, partial curve]"}, {"molecule": "CCOc1ccccc1C1C(C(=O)Nc2ccccc2)=C(C)Nc2c(C(=O)Nc3ccc(F)cc3)cnn21", "note": "(configuration not stated)", "AC50": "10 µM [falling, partial curve]"}, {"molecule": "CCOc1ccc(-c2cccc(NS(=O)(=O)c3ccccc3C(F)(F)F)c2)nn1", "AC50": "0.00794 µM [falling, full curve]"}, {"molecule": "O=S(=O)(c1ccc2nc(Nc3cccc(F)c3)ccc2c1)N1CCCC1", "AC50": "20 µM [falling, partial curve, poor fit]"}, {"molecule": "Cc1ccccc1Cn1c2ccccc2c2cnn(CC(=O)N3CCC(C)CC3)c(=O)c21", "AC50": "7.94 µM [falling, partial curve]"}, {"molecule": "Cc1ccc(S(=O)(=O)NCC(Nc2cccc(Cl)c2)c2ccccc2)cc1", "note": "(configuration not stated)", "AC50": "20 µM [falling, single point]"}, {"molecule": "O=C(CCCn1c(=S)[nH]c2cc3c(cc2c1=O)OCO3)N1CCN(c2ccccn2)CC1", "AC50": "20 µM [falling, partial curve]"}, {"molecule": "CCn1c(C(=O)N2CCCC(C(=O)N3CCN(c4ccccc4)CC3)C2)cc2sccc21", "note": "(configuration not stated)", "AC50": "12.6 µM [falling, partial curve]"}, {"molecule": "C=CCn1c(NC(C)c2cc(Cl)ccc2O)nc2ccccc21", "note": "(configuration not stated)", "AC50": "25.1 µM [falling, partial curve]"}, {"molecule": "CCCCn1c(=O)n(CC(=O)NCc2ccc(C)cc2)c(=O)c2c1nc(CO)n2CCC", "AC50": "15.8 µM [falling, partial curve]"}, {"molecule": "COc1ccc2c(c1)cc(CNc1ccc(OC)c(OC)c1)c(=O)n2CC(=O)Nc1ccc(F)cc1", "AC50": "3.98 µM [falling, full curve]"}, {"molecule": "CCOC(=O)c1c(C)[nH]c(C)c1C(=O)Cn1nnc(-c2ccccc2C)n1", "AC50": "25.1 µM [falling, single point]"}, {"molecule": "O=C(Nc1nc(-c2nc3ccccc3s2)cs1)c1ccc(S(=O)(=O)N2CCOCC2)cc1", "AC50": "3.16 µM [falling, full curve]"}, {"molecule": "Cc1c(C(=O)Nc2ccc(F)c(F)c2)oc2ccc(S(=O)(=O)N3CCCCC3)cc12", "AC50": "6.31 µM [falling, partial curve]"}, {"molecule": "O=S(=O)(NCC(c1ccco1)S(=O)(=O)c1ccccc1)c1ccccc1", "note": "(configuration not stated)", "AC50": "3.16 µM [rising, full curve]"}, {"molecule": "COc1ccc(N2CCN(C(=O)CCc3c(C)nc4c(-c5ccccc5)c(C)nn4c3C)CC2)cc1", "AC50": "15.8 µM [falling, partial curve]"}, {"molecule": "CC1=C(C(N)=O)C(c2ccc(C(C)C)cc2)n2nc(SCc3ccccc3)nc2N1", "note": "(configuration not stated)", "AC50": "6.31 µM [falling, partial curve, poor fit]"}, {"molecule": "O=S(=O)(c1ccc(Br)s1)N1CCN(c2ccccn2)CC1", "AC50": "31.6 µM [falling, partial curve]"}, {"molecule": "CCOc1ccc(S(=O)(=O)N(CC(=O)Nc2cccnc2)c2ccccc2)cc1", "AC50": "15.8 µM [falling, partial curve]"}, {"molecule": "COc1ccc(CNC(=O)CCc2cn(Cc3cc(C)ccc3C)c3ccccc23)cc1OC", "AC50": "12.6 µM [falling, partial curve]"}, {"molecule": "O=c1cc(-c2ccccc2)nc(SCc2nc(-c3ccc(C(F)(F)F)cc3)no2)[nH]1", "AC50": "1.26 µM [rising, partial curve]"}, {"molecule": "O=C(Cn1ccn(-c2cccc(Cl)c2)c(=O)c1=O)NCCc1ccccc1", "AC50": "12.6 µM [falling, single point]"}, {"molecule": "COc1cccc(NC(=O)CSc2cc(=O)n(C)c3ccc(Cl)cc23)c1", "AC50": "0.0126 µM [falling, full curve, poor fit]"}, {"molecule": "CCCCNC(=O)C1CCN(C(=O)N2CC(C)Oc3ccc(Cl)cc32)CC1", "note": "(configuration not stated)", "AC50": "25.1 µM [falling, single point]"}, {"molecule": "CCOc1ccccc1NC(=O)Cc1coc2c(C)c(C)ccc12", "AC50": "2.51 µM [falling, partial curve]"}, {"molecule": "COc1ccc(NC(=O)c2c(C(=O)Nc3ccccc3)sc3nc(C)cc(=O)n23)cc1", "AC50": "2.51 µM [falling, full curve]"}, {"molecule": "COc1ccc(OCC(=O)Nc2cccc3cccnc23)cc1", "AC50": "39.8 µM [falling, single point]"}, {"molecule": "N#C/C(=C\\c1ccc(F)cc1)C(=O)NCC1CCCO1", "note": "(configuration not stated)", "AC50": "39.8 µM [falling, partial curve, poor fit]"}, {"molecule": "Cn1cnc(S(=O)(=O)N2CCCC(C(=O)NCc3ccccc3Cl)C2)c1", "note": "(configuration not stated)", "AC50": "7.94 µM [rising, single point] [measured here: IkB-luc green channel]"}, {"molecule": "Cc1cccc(N2CCN(C(=O)c3cc4c(=O)n(C)c5ccccc5c4n3C)CC2C)c1", "note": "(configuration not stated)", "AC50": "2.51 µM [falling, full curve]"}, {"molecule": "COC(=O)c1ccc(NC(=O)CCc2c(C)nc3c(c(C)nn3-c3ccc(C)cc3)c2C)cc1", "AC50": "10 µM [falling, partial curve]"}, {"molecule": "COc1ccccc1-c1cc(C(=O)NCc2cccs2)no1", "AC50": "0.00316 µM [falling, full curve]"}, {"molecule": "CCOC(=O)C1CCN(c2c(C(=O)c3ccc(OCC)cc3)cnc3ccc(OC)cc23)CC1", "AC50": "15.8 µM [falling, partial curve]"}, {"molecule": "Oc1c(C(c2ccccc2F)N2CCOCC2)sc2nc(-c3ccco3)nn12", "note": "(configuration not stated)", "AC50": "10 µM [rising, partial curve]"}, {"molecule": "CCN(c1ccccc1)S(=O)(=O)c1ccc2[nH]cc(C(=O)NC3CCCCC3)c(=O)c2c1", "AC50": "20 µM [falling, partial curve]"}, {"molecule": "CCOC(=O)N1CCN(C(=O)CSc2nnc(-c3cccc(OC)c3)o2)CC1", "AC50": "3.98 µM [falling, partial curve]"}, {"molecule": "COc1c(C)cc(S(=O)(=O)Nc2cccc(-c3ccc(N4CCOCC4)nn3)c2)c(C)c1C", "AC50": "39.8 µM [falling, partial curve]"}, {"molecule": "COc1ccc(OCc2nnc3n2N=C(c2ccc(Br)cc2)CS3)cc1", "AC50": "25.1 µM [falling, single point]"}, {"molecule": "Nc1nc(NCc2cccs2)nn1-c1ccccc1", "AC50": "31.6 µM [falling, single point]"}, {"molecule": "O=C(COC(=O)c1cc2ccccc2o1)c1ccccc1", "AC50": "1.58 µM [falling, full curve, poor fit]"}, {"molecule": "COc1ccc(-n2c(=O)c3ccccc3n(CC(=O)NCCc3ccccc3)c2=O)c(OC)c1", "AC50": "0.0398 µM [falling, full curve, poor fit]"}, {"molecule": "Cc1ccc(NC(=O)CCc2c(C)nc3c(-c4ccccc4)c(C)nn3c2C)c(C)c1", "AC50": "15.8 µM [falling, partial curve]"}, {"molecule": "Cc1cccc(-n2cc(-c3ccccc3)c3c(NC(C)C)ncnc32)c1", "AC50": "39.8 µM [falling, partial curve]"}, {"molecule": "CC1CCN(S(=O)(=O)c2cn(CC(=O)Nc3ccc(F)c(Cl)c3)c(=O)c3ccccc23)CC1", "AC50": "10 µM [falling, partial curve]"}, {"molecule": "O=C(CSc1nccn1-c1cccc(Cl)c1)Nc1cccc(C(F)(F)F)c1", "AC50": "12.6 µM [falling, partial curve, poor fit]"}, {"molecule": "O=C(Nc1ccccc1N1CCN(C(=O)c2ccccc2)CC1)c1ccc2c(c1)OCO2", "AC50": "10 µM [falling, partial curve]"}, {"molecule": "CCCN1C(=O)C(O)(CC(=O)c2ccc(CC)cc2)c2cc(Br)ccc21", "note": "(configuration not stated)", "AC50": "25.1 µM [falling, partial curve]"}, {"molecule": "C=CCn1c(SCC(=O)N2CCOCC2)nc2scc(-c3ccco3)c2c1=O", "AC50": "7.94 µM [falling, partial curve]"}, {"molecule": "Cc1cccc(OCC(=O)Nc2nonc2-c2ccc(Br)cc2)c1C", "AC50": "2.51 µM [rising, partial curve, poor fit]"}, {"molecule": "COc1ccc(C(=O)Nc2ccccc2C(N)=O)cc1", "AC50": "12.6 µM [falling, partial curve]"}, {"molecule": "CCOc1ccc(CC(=O)Nc2ccc3c(c2)N(C)C(=O)c2ccccc2S3)cc1OCC", "AC50": "20 µM [falling, partial curve]"}, {"molecule": "CCc1ccc(OCC(=O)N(Cc2ccc(C)cc2)Cc2ccco2)cc1", "AC50": "31.6 µM [falling, single point]"}, {"molecule": "Cc1cccc(C)c1-n1ncc(C(=O)NCc2ccc3c(c2)OCO3)c1C1CCN(C(=O)OC(C)(C)C)CC1", "AC50": "15.8 µM [falling, partial curve]"}, {"molecule": "CCOC(=O)CSC1=C(C#N)C(c2ccco2)C(C(=O)Nc2cccc(C(F)(F)F)c2)=C(C)N1", "note": "(configuration not stated)", "AC50": "31.6 µM [falling, partial curve]"}]}]}
